{
  "source": "paper PMC7343282",
  "about": "“Tissue Distribution of Several Series of Cationic Surfactants in Rainbow Trout (Oncorhynchus mykiss) Following Exposure via Water” (Environmental Science & Technology, 2020)",
  "origin": "cited, not measured here",
  "key": {"[1]": {"test_system": "killifish", "settings": "cited from earlier work"}, "[2]": {"test_system": "fathead minnows", "settings": "cited from earlier work"}},
  "data": [
    {"smiles": "CN(C)CCOC(c1ccccc1)c1ccccc1", "note": "[diphenhydramine]", "values": [
      {"measurement": "Vd, plasma concentration based", "setting": "[1]", "result": "0.32–0.48 L kg^–1"},
      {"measurement": "Vd, plasma concentration based", "setting": "[2]", "result": 3.0, "unit": "L kg^–1"}
    ]}
  ]
}
